The odorant receptor screen of Mainland et al. (2015)
Values joined by “and” are separate entries in the source; they are usually repeats but may differ in a detail not shown here. Equal entries are not always repeated. The list shows a part of the results. Single wells; the ratio to wells without odorant was worked out here, and repeats agree poorly.

Chains of the proteins cited; added tags and fusions are not shown. Chains listed by the source or under a name are the forms on record and can include a tag or linker.
OR4F14 A297T, as listed by the source, stated change not applied: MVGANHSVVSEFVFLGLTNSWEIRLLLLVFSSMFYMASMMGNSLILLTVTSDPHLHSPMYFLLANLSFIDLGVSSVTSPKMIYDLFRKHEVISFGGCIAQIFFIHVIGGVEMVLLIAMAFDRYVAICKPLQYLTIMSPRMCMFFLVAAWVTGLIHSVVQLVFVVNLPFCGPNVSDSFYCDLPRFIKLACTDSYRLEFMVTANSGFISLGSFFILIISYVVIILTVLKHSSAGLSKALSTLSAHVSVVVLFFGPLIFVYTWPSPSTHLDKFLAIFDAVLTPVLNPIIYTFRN

Assays:
Test in all cases: odorant receptor activation (CRE luciferase / Renilla) (fold of no-odor wells); higher = more activation
Conditions in all cases: 100 µM
OR4D1 R54Q clone 1467 = system: OR4D1 R54Q clone 1467
OR4D1 clone 1316 = system: OR4D1 clone 1316
OR4D10 clone 1174 = system: OR4D10 clone 1174
OR4D11 clone 1243 = system: OR4D11 clone 1243
[1] = system: OR4D2 C97S/L187F clone 1285
OR4D5 clone 1122 = system: OR4D5 clone 1122
OR4D6 D96G clone 1225 = system: OR4D6 D96G clone 1225
OR4D9 clone 1217 = system: OR4D9 clone 1217
[2] = system: OR4E2 V118M/Q234R clone 1274
OR4F14 A297T clone 1059 = system: OR4F14 A297T clone 1059

Row | Structure (SMILES) | odorant receptor activation (OR4D1 R54Q clone 1467) | odorant receptor activation (OR4D1 clone 1316) | odorant receptor activation (OR4D10 clone 1174) | odorant receptor activation (OR4D11 clone 1243) | odorant receptor activation [1] | odorant receptor activation (OR4D5 clone 1122) | odorant receptor activation (OR4D6 D96G clone 1225) | odorant receptor activation (OR4D9 clone 1217) | odorant receptor activation [2] | odorant receptor activation (OR4F14 A297T clone 1059)
1 | O=C1CCCCCCCCCCCCCCO1 [pentadecalactone] | 0.786 | 0.773 | 0.603 | 0.792 | 0.55 | 0.958 | 1.25 | 1.34 | 0.671 | 0.835
2 | CCC1(O)C2(C)CCC(C2)C1(C)C (stereo not drawn) [2-ethylfenchol] | 1.07 | 0.792 | 1.11 | 1.42 | 1 | 0.805 | 0.681 | 0.935 | 0.685 | 4.54
3 | O=CCc1ccccc1 [phenyl acetaldehyde] | 1.43 | 1.4 | 0.876 | 1.04 | 0.888 | 1.45 | 1.33 | 1.21 | 1.43 | 1.42
4 | CCCCCCCCC=O [nonyl aldehyde] | 1.23 | 0.957 | 0.842 | 0.969 | 0.981 | 1.12 | 0.863 | 1.04 | 1.25 | 0.903
5 | CCCCCCCOC(C)=O [heptyl acetate] | 0.84 and 1.37 | 1.22 and 0.856 | 0.956 | 1.16 and 0.783 | 0.878 and 1.21 | 1.19 | 0.935 | 0.883 | 1.23 and 1.4 | 0.951
6 | COC(=O)c1ccccc1O [methyl salicylate] | 1.41 | 0.832 | 0.817 | 0.819 | 0.835 | 0.802 | 0.683 | 1.01 | 0.747 | 0.889
7 | COc1cc(C=O)ccc1O [vanillin] | 0.97 | 1.04 | 1.05 | 0.932 | 0.869 | 1.22 | 1.26 | 1.28 | 1.3 | 0.904
8 | C=CCSCC=C [diallyl sulfide] | 1.34 | 1.25 | 0.875 | 0.971 | 1 | 0.966 | 1.15 | 0.999 | 0.994 | 0.895
9 | CC(=O)C(C)=O [diacetyl] | 1.54 | 1.28 | 0.991 | 1.14 | 1.17 | 1.01 | 1.17 | 1 | 0.927 | 1.04
10 | CC12CCC(CC1)C(C)(C)O2 [cineole] | 0.943 | 0.967 | 0.941 | 0.981 | 0.988 | 1.11 | 0.64 | 0.834 | 1.38 | 0.803
11 | CCCCCCCCCCC=O [undecanal] | 1.02 | 0.849 | 0.611 | 0.933 | 0.807 | 0.957 | 1.08 | 1.08 | 1.06 | 0.987
12 | C=CC(C)(O)CCC=C(C)C (stereo not drawn) [linalool] | 1.55 | 0.779 | 0.816 | 0.942 | 1.12 | 0.97 | 0.871 | 1.02 | 1.09 | 0.991
13 | CC1CCC(C(C)C)C(O)C1 (single isomer, unassigned; (-)) [(-)-menthol] | 4.46 | 0.846 | 1.16 | 0.634 | 0.882 | 0.827 | 0.785 | 1.16 | 0.719 | 4.1
14 | CC/C=C\CCO [cis-3-hexen-1-ol] | 0.985 | 0.888 | 1.16 | 1.01 | 0.9 | 1.2 | 0.969 | 0.921 | 1.15 | 1.21
15 | C=CCc1ccc(O)c(OC)c1 [eugenol] | 1.85 and 0.724 and 1.35 | 2.28 and 1.51 | 2.8 and 1.34 | 1.05 and 1.29 | 2.01 and 1.46 | 0.884 | 1.17 and 1.35 | 1.86 and 1.04 | 2.5 and 1.25 | 1.63 and 1.22
16 | COc1ccccc1O [guaiacol] | 0.984 and 1.21 | 1.25 and 0.697 | 1.07 | 1.31 and 0.983 | 0.727 and 1.32 | 1.38 | 1.29 | 0.816 | 1.19 | 1.27
17 | CC(=O)OCC=C(C)CCC=C(C)C [geranyl acetate] | 0.917 and 1.35 | 1.21 and 1.06 | 0.832 | 1.03 and 1.16 | 0.87 and 1.03 | 2.69 | 1.01 | 1.36 | 1.77 and 1.28 | 1.45
18 | c1cnccn1 [pyrazine] | 0.801 | 0.797 | 0.753 | 0.657 | 0.644 | 1.17 | 1.28 | 1.21 | 1.07 | 1.16
19 | CC(C)C(=O)O [isobutyric acid] | 1.15 and 0.998 | 1.09 and 0.707 | 1.1 | 1.35 and 1.07 | 0.756 and 1.35 | 0.946 | 1.14 | 1.21 | 1.32 and 0.933 | 0.76
20 | CCCCO [1-butanol] | 1.2 | 1.12 | 1.03 | 1.3 | 1.18 | 0.782 | 0.787 | 0.955 | 0.857 | 3.45
21 | C=CCc1ccc(OC(C)=O)c(OC)c1 [eugenol acetate] | 2.12 | 1.84 | 1.54 | 1.52 | 1.87 | 1.38 | 1.5 | 1.36 | 1.75 | 1.65
22 | CCCCCCOC(=O)CCC [hexyl butyrate] | 0.959 and 0.953 | 1.18 and 0.722 | 1.21 | 1.23 and 1.18 | 0.807 and 1.47 | 1.17 | 1.13 | 0.967 | 1.09 and 0.835 | 1.08
23 | CCCCCC(=O)O [caproic acid] | 1.08 | 0.921 | 1.13 | 0.727 | 0.943 | 0.884 | 1.09 | 1.03 | 1.22 | 0.863

Row | Structure (SMILES) | odorant receptor activation (OR4D1 R54Q clone 1467) | odorant receptor activation (OR4D1 clone 1316) | odorant receptor activation (OR4D10 clone 1174) | odorant receptor activation (OR4D11 clone 1243) | odorant receptor activation [1] | odorant receptor activation (OR4D5 clone 1122) | odorant receptor activation (OR4D6 D96G clone 1225) | odorant receptor activation (OR4D9 clone 1217) | odorant receptor activation [2] | odorant receptor activation (OR4F14 A297T clone 1059)
24 | C=CCc1ccc(OC)c(OC)c1 [eugenol methyl ether] | 1.44 | 1.5 | 1.22 | 1.58 | 1.49 | 2.02 | 1.57 | 1.2 | 1.85 | 1.4
25 | CC(C)CCC(=O)O [4-methylvaleric acid] | 0.866 | 1.09 | 1.02 | 1.4 | 1.27 | 0.974 | 0.716 | 0.99 | 1.31 | 2.42
26 | CCCCCCCCCC=O [decyl aldehyde] | 1.25 | 1.26 | 0.972 | 1.22 | 1.04 | 0.998 | 1.61 | 1.11 | 1.24 | 1.02
27 | CC12CCC(C1)C(C)(C)C2=O (stereo not drawn) [fenchone] | 1.18 | 0.867 | 0.816 | 1.02 | 1.09 | 1.52 | 1.14 | 0.798 | 1.01 | 0.878
28 | CC(=O)OC1CC2CCC1(C)C2(C)C (stereo not drawn) [isobornyl acetate] | 1.04 and 1.19 | 1.03 and 0.852 | 0.997 | 0.959 and 0.988 | 0.647 and 1.55 | 0.862 | 0.989 | 0.915 | 1.63 and 0.968 | 0.787
29 | CC(C)C=O [isobutyraldehyde] | 0.996 and 1.13 | 1.04 and 0.796 | 1.17 | 0.896 and 0.833 | 0.721 and 1.32 | 0.772 | 1.13 | 1.32 | 1.15 and 0.681 | 2.02
30 | CC1=CCC(C(C)(C)O)CC1 (stereo not drawn) [terpineol] | 0.725 | 0.909 | 0.978 | 0.891 | 0.786 | 0.946 | 1.73 | 1.31 | 1.13 | 1.03
31 | CCCCCCCCOC(C)=O [octyl acetate] | 1.28 | 0.971 | 0.813 | 1.04 | 0.936 | 0.854 | 0.841 | 1.09 | 1.43 | 0.964
32 | CCCCCCCC=CC=O [2-decenal] | 2.23 | 1.23 | 1.06 | 1.89 | 2.56 | 1.22 | 0.795 | 0.712 | 1.19 | 10.1
33 | CC1=NC(C)SC1C (stereo not drawn) | 0.838 and 0.607 | 0.489 | 1.42 | 1.65 | 1.6 |  | 0.919 | 1.11 | 0.644 | 1.67
34 | c1ccc(Oc2ccccc2)cc1 [diphenyl ether] | 1.44 | 1.16 | 0.855 | 1.28 | 1.09 | 0.832 | 1.21 | 0.833 | 1.24 | 0.939
35 | CCCCCOC(C)=O [n-amyl acetate] | 0.351 and 0.482 | 0.205 | 0.608 | 0.473 | 0.711 | 1.02 | 0.627 | 0.711 | 0.389 | 1.74
36 | C=C(C)C1CCC2=CC(=O)CC(C)C2(C)C1 (stereo not drawn) [amyl laurate] |  |  |  |  |  | 2.09 |  |  |  | 
37 | CCCCCCC=O [heptaldehyde] |  |  | 0.382 and 1.03 |  | 0.834 and 0.907 and 1.23 | 1.29 | 0.426 and 1.06 | 0.434 and 0.739 |  | 1.62 and 1.97
38 | C=C(C)C1CC=CCC1 (stereo not drawn) [r-limonene] | 0.914 and 0.413 and 0.646 |  | 0.701 and 0.474 |  | 0.633 and 0.823 | 0.94 | 1.33 and 0.695 |  |  | 1.21 and 2.86
39 | CC(=O)c1ccccc1 [acetophenone] | 0.813 and 0.402 | 0.987 | 1.35 | 0.709 | 1.61 |  | 0.95 | 1.04 | 0.784 | 1.27
40 | CC(C)=CCCC(C)=CC=O [citral] | 1.35 | 1.25 | 0.971 | 1.11 | 1.28 | 0.839 | 0.942 | 0.978 | 1.31 | 1.16
41 | COC(=O)c1ccccc1 [methyl benzoate] | 0.392 and 0.552 | 0.332 | 0.926 | 0.567 | 1.53 |  | 0.703 | 0.77 | 0.458 | 2.43
42 | CC=Cc1ccc(O)c(OC)c1 [isoeugenol] |  | 1.27 and 1.38 | 0.996 | 1.17 and 1.11 | 0.758 and 1.68 | 3.96 | 1.08 | 1.07 | 1.67 and 1.53 | 2.16
43 | CCCCCCCC=O [octyl aldehyde] | 1.42 | 0.881 | 0.863 | 1.04 | 1.08 | 0.792 | 0.834 | 1.02 | 1.32 | 1
44 | CCCC(=O)O [butyric acid] | 1.47 | 0.958 | 0.988 | 0.844 | 1.13 | 1.46 | 0.788 | 0.942 | 1.17 | 1.14
45 | CC1CCC(C(C)C)C(O)C1 (single isomer, unassigned; (+)) [(+)-menthol] | 0.925 | 0.936 | 1.07 | 1.01 | 1.14 | 0.781 | 0.723 | 1.64 | 0.737 | 3.95
46 | CC12C=CCC1C1CCC3CC(=O)CCC3(C)C1CC2 (stereo not drawn) [androstenone] | 1.01 | 1.26 | 4.5 | 1.31 | 1.16 |  | 3.32 | 5.78 | 1.29 | 1.85

As entered above.
CCCC(=O)O [butyric acid] – odorant receptor activation (OR4D5 clone 1122): 1.46
CC(C)=CCCC(C)=CC=O [citral] – odorant receptor activation (OR4D6 D96G clone 1225): 0.942
